Here are results for 1 sequence from PMC10269722, “LexR Positively Regulates the LexABC Efflux Pump Involved in Self-Resistance to the Antimicrobial Di-N-Oxide Phenazine in Lysobacter antibioticus”.

In this data set the target is T1, LexR (Lysobacter antibioticus OH13) (UniProt A0A0S2F3V0).
T1 sequence (looked up, limits assumed): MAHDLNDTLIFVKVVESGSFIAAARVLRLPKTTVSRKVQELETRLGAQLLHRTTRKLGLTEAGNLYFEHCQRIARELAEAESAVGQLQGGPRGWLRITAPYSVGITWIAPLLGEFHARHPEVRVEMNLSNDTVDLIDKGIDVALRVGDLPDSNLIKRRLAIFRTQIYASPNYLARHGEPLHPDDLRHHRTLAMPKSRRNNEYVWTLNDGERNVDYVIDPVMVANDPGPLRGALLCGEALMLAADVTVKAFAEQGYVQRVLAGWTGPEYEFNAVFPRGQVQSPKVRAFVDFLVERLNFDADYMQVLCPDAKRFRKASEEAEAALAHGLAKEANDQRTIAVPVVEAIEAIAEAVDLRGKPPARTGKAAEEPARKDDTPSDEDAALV
The experiment in a line: EMSA. The conditions noted are these: EMSA (LightShift kit): 1x binding buffer, 50 ng/uL poly(dI-dC), 2.5% glycerol, 0.05% NP-40, 5 fmol labeled probe in 20 uL, 30 min; recombinant protein; protein details: His6 (pET-28a, BamHI/EcoRI); label: 5' biotin. For orientation: Mobility shift assays separate free from complexed probe on a gel.

For at least one entry, the source does not settle the construct or the ends of the probe. No signal at the amounts used counts as a negative. At least one verdict was read from the data and is not stated in words by the source. Tags and fusion partners may be left off the protein sequences shown.

Take “GGCTCCGCGCCTGCCAGCTTCTTTTTTCGTTGTCTGGGGGCTAGGGCGAGACACCCGC (double strand) [probe 3 (58 bp)]”: the binding result is on record as “no binding”.
